Here are results for 1 sequence from paper PMC11395145, “The Archetypal Gamma-Core Motif of Antimicrobial Cys-Rich Peptides Inhibits H^+-ATPases in Target Pathogens” (International Journal of Molecular Sciences, 2024).

Protein sequences, listed by entry. Tags and fused reporters are not part of them. Lines headed by an entry give the natural chain unless they say otherwise; changes in a name come on top.
UniProt P28877: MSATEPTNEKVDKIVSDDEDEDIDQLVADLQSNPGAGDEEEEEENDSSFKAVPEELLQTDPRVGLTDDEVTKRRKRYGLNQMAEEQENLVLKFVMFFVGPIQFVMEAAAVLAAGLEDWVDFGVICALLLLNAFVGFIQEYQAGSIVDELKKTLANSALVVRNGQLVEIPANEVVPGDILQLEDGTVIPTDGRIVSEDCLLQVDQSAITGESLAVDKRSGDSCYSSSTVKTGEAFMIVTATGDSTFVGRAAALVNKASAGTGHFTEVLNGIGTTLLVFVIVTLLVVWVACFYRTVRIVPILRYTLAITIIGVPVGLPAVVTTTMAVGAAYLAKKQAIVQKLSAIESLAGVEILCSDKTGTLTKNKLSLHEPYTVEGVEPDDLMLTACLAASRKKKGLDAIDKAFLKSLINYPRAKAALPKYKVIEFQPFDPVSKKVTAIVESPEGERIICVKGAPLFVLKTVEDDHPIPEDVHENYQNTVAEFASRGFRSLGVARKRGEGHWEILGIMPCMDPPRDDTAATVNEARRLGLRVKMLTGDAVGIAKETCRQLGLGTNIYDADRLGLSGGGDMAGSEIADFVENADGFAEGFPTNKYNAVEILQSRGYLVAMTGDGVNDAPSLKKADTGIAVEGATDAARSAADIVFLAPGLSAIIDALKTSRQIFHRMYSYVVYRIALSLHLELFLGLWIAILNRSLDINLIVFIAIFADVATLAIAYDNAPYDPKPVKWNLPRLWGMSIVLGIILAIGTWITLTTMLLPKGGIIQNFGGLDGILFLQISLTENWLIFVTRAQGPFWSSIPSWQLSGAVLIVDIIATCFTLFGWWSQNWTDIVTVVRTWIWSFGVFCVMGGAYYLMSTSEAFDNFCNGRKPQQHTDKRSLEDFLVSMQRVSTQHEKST

Bounds are passed on as bounds.

Assay [1] relates to Candida albicans ATCC 10231. Put plainly: Microbicidal (spread-plate cell viability) assay, candidacidal activity. It counts as cell-based. As to the method: (§1) First, we tested the antimicrobial activity of Kal-1 and a shorter Kal-1-derived peptide (Kdp15), both containing the complete γ-core signature of human lactoferrin, against C. albicans and P. aeruginosa. Microbicidal (cidal) activity was determined after 90 min of incubation (37 °C; pH 7.4) with a range of concentrations of each hLf-derived peptide.
(§2) Figure 1 Cell viability and membrane permeabilization assays. C. albicans or P. aeruginosa (10^6 cells/mL) were incubated (90 min, 37 °C) with each peptide/protein at the indicated concentrations. Aliquots were plated on SDA or […], and colonies were counted after 24–48 h (C. albicans) or 24 h (P. aeruginosa). At each point, samples were stained with propidium iodide (PI) and intracellular PI incorporation, indicative of membrane permeabilization, was quantified by flow cytometry. The relative cell viability (blue lines) and cellular permeabilization (red lines) were calculated as the percentage of untreated cells. Human lactoferrin (hLf) and the peptide Lfpep were used as negative and positive controls of cellular permeabilization, respectively.
(§3) Microbial susceptibility to the peptides was determined in a spread-plate assay as described previously. Briefly, two-fold serially diluted peptides were incubated (37 °C) with approximately 10^6 cells/mL in Tris buffer (10 mM Tris-HCl, pH 7.4). After 90 min of incubation with the peptides, aliquots were removed and plated in duplicate on an appropriate agar plate for each species (SDA for C. albicans, TSA for P. aeruginosa). The plates were incubated for 24–48 h at 30 °C (C. albicans) or 24 h at 37 °C (P. aeruginosa) for enumeration. The cell viability values, expressed as colony forming units (CFUs), were determined relative to incubation without added peptides and represent the mean ± standard deviation (±SD) of at least three independent determinations. For inhibition assays, the cell suspensions were preincubated (15 min at 37 °C) with the corresponding inhibitors before the addition of peptides. Water-insoluble inhibitors were prepared in DMSO, such that the final assay volume was ≤1%. Other specific experimental inhibition conditions are described where appropriate. The IC50 value is expressed as the concentration that caused 50% reduction in viable counts.

Assay [2] deals with Pseudomonas aeruginosa 10145 (PAO1). Put plainly: Microbicidal (spread-plate cell viability) assay, pseudomonacidal activity. The assay is classed as cell-based. As to the method:
as §1, §2
as §3, with “Water-insoluble inhibitors were prepared in DMSO, such that the final assay volume was ≤1%. Other specific experimental inhibition conditions are described where appropriate. The IC50 value is expressed as the concentration that caused 50% reduction in viable counts.” left out

The test system of assay [3] is C. albicans cells. The assay can be described thus: Cell membrane permeability assay (propidium iodide, flow cytometry). It counts as cell-based, Candida albicans. The conditions noted are these: 90 min, 37 °C, range of concentrations, PI 9 μM. As to the method: (§4) To determine whether Kal-1 and Kdp15 exert a permeabilizing effect on fungal or bacterial membranes, the cellular influx of the fluorescent nucleic-acid-binding dye propidium iodide (PI) was assessed. As PI itself cannot permeate through an intact phospholipid bilayer, only permeabilized cells take up PI, resulting in DNA intercalation and fluorescence.
(§5) Flow cytometry was used to assess the ability of peptides to permeabilize plasma membranes of cells in incorporation of the DNA intercalating dye propidium iodide (PI). C. albicans or P. aeruginosa cells (10^6 cells/mL) in Tris buffer were incubated with two-fold serially diluted peptides for 90 min at 37 °C and subsequently reincubated with PI (9 μM, final concentration) for 5 min. The suspensions were centrifuged at 1100× g for 10 min and subsequently washed with Tris buffer to remove any unbound PI. The peptide Lfpep was used to disrupt the cytoplasmic membrane (positive control). Cell fluorescence was monitored using a Cytomics FC500 Flow Cytometer (Beckman Coulter Life Sciences, Indianapolis, IN, USA). The PI fluorescence was excited at a wavelength of 488 nm and emission was registered at 610 nm. For each treatment, 20,000 events were measured. Data were acquired and analyzed using CytExpert 2.1 software. Results were expressed as the percentage of PI-positive cells with respect to the unstained cells (control). […]
(A flow cytometer gives signals particle by particle.)

Assay [4] relates to P. aeruginosa cells. Described as above. It counts as cell-based, Pseudomonas aeruginosa. The settings on record: 90 min, 37 °C. As to the method: as §4, §5
Assay [5] relates to C. albicans cells. The assay can be described thus: Oxygen consumption measurement (Clark-type electrode). The assay is classed as cell-based, Candida albicans. The conditions noted are these: 5 × 10^6 cells/mL, peptides at IC50, piericidin A 32 μM, at least 30 min, 25 °C. As to the method: (§6) Figure 3 Effect of cellular respiration on the microbicidal activity of hLf γ-core-containing peptides. (A,C) Oxygen consumption was measured in C. albicans and P. aeruginosa cellular suspensions in the absence (control) or the presence of kaliocin-1 (Kal-1), Kdp15, or human lactoferrin (hLf), and piericidin A (positive control). (B,D) Effect of cellular respiration on the microbicidal activity of hLf γ-core-containing peptides. Cells (10^6 cells/mL) were pre-incubated (15 min, 37 °C) with 32 μM piericidin A and incubated for 90 min at 37 °C with the peptides hLf or BM2. The cell viability was determined by means of the plate counting method. The results are the mean ± SD from duplicates of at least three independent experiments. * p < 0.05, ** p < 0.01, and *** p < 0.001 were used.
(§7) C. albicans or P. aeruginosa cells were grown to the mid-logarithmic phase, washed twice in Tris buffer, and resuspended in the same buffer, as described in [9, 10]. Briefly, cells (5 × 10^6 cells/mL) were pre-incubated for 15 min at 37 °C with the peptides (IC50). […] Oxygen consumption was measured using a Clark-type oxygen electrode (Dual digital-model 20, Rank Brothers Ltd., Cambridge, UK) in a closed jacketed chamber maintained at 25 °C. […] The viability of the cells was determined at 30 min by removing aliquots from the oxygen chambers and plating the subsequent dilutions on SDA or TSA plates.

Assay [6] relates to P. aeruginosa cells. Described as above. The assay is classed as cell-based, Pseudomonas aeruginosa. The settings on record: 5 × 10^6 cells/mL, peptides at IC50, piericidin A 32 μM, at least 30 min, 25 °C. As to the method:
as §6, §7

Assay [7] has as its system C. albicans cells. The assay can be described thus: Measurement of intracellular ATP (BacTiter-Glo). It counts as cell-based, Candida albicans. The settings on record: C. albicans 10^6 cells/mL, candidacidal concentration, 90 min, 37 °C; BM2 0.25 μM. As to the method: Total ATP was measured by using the BacTiter-Glo^TM Microbial Cell Viability Assay (Promega Co., Madison, WI, USA) according to the manufacturer’s instructions. […] Aliquots (100 μL) were incubated (90 min at 37 °C) with kaliocin-1, Kdp15, or human lactoferrin and the BM2 peptide (positive control). One hundred microliters of incubation mix was transferred into a 96-well opaque white plate, mixed with an equal volume of the BacTiter-Glo reagent, and incubated for 15 min in the dark. The reagent used a thermostable luciferase to produce luminescence in an ATP-dependent manner. The emitted luminescence was detected by using a Varioskan Flash multimode reader (Thermo Scientific, Waltham, MA, USA) with a 10 s of shaking and 1 s integration time. A calibration curve was prepared for each experiment, with ATP standards ranging from 1 to 1000 nM. For assays performed in the presence of the BM2 peptide, samples were preincubated with 0.25 μM BM2 for 30 min at 37 °C. All the tests were performed in triplicate at least four times.

For a further assay, the target named is Pma1p H^+-ATPase (Candida albicans, UniProt P28877). The settings on record: starved C. albicans 10^7 cells/mL in 50 mM KCl, pre-incubated with peptide 2 × IC50, 2.5 mM glucose; control ~1.3 pH units.
Where [8] appears, read: Tris buffer with 50 mM KCl vs without.
Setting [9] is: cells pre-incubated 15 min, 37 °C with 32 μM piericidin A, then 90 min with peptide.

As for “FFSASCVPGADKGQFPNLCRLCAGTGENKCA [Kaliocin-1]”, the IC50 was 40 µM in assay [1] (90 min, 37 °C, 10 mM Tris-HCl pH 7.4, 10^6 cells/mL, CFU plating, estimated, read-out: IC50 (concentration that caused 50% reduction in viable counts) against C. albicans) and 7.5 µM in assay [2] (90 min, 37 °C, 10 mM Tris-HCl pH 7.4, 10^6 cells/mL, CFU plating, read-out: IC50 (concentration that caused 50% reduction in viable counts) against P. aeruginosa). Further, in assay [1] (setting [8]), the “effect of high external K^+ on candidacidal activity” value is on record as “seemed to protect”. Also, the “effect of mitochondrial ATP synthase inhibition (oligomycin A) on candidacidal activity” value in assay [1] (cells pre-incubated 15 min, 37 °C with 16 μg/mL oligomycin A) is listed as “less susceptible”. Also, in assay [1] (setting [9]), the “effect of respiration inhibition (piericidin A) on candidacidal activity” value is “less susceptible”. Also, the “effect of Tok1p K^+ channel block (TEA^+) on candidacidal activity” value in assay [1] (cells pre-incubated 15 min with 10 mM TEA^+) is reported as “less susceptible”. In assay [1] (vs hLf IC50 3 μM), the “IC50 against C. albicans relative to IC50 of native hLf (fold greater)” value is listed as “approximately 13 fold”. For the same sequence, in assay [2] (setting [8]), the “effect of high external K^+ on pseudomonacidal activity” value was “seemed to protect”. Besides, the “effect of respiration inhibition (piericidin A) on pseudomonacidal activity” value in assay [2] (setting [9]) was “less susceptible”. Also, in the assay on C. albicans cells [3], the “PI fluorescent cells (plasma membrane permeabilization), C. albicans” value was “not significantly increased”. For the same sequence, in the assay with P. aeruginosa cells [4], the “concentration giving dose-dependent PI uptake (membrane permeabilization) in P. aeruginosa” value was at least 25 µM. Moreover, in the assay with C. albicans cells [5], the “oxygen consumption of C. albicans in presence of the substance” value is “equal to that of untreated (control) cells”. Further, in the assay on P. aeruginosa cells [6], the “oxygen consumption of P. aeruginosa in presence of the substance” value is recorded as “equal to that of untreated (control) cells”. Also, in the assay on C. albicans cells [7], the “increment in intracellular ATP (iATP) level compared to untreated control” value was ~ 8 fold. Further, the “decrease of external pH after 20 min (glucose-induced acidification)” value at Pma1p H^+-ATPase is on record as “approximately 0.5 pH units”.
